# Results deposited as PubChem BioAssay AID1259308 (NCATS, 2017).
# Test: 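Knock-downs that increase output of a recombinant reporter protein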 (primary screen)
# System: human HEK293 embryonic kidney cells stably expressing firefly luciferase (HEK-CMV-Luc2-Hygro)
# Reagent: single siRNA against human genes, 0.8 pmol siRNA per well
# Timing: 72 h
# Detection: 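Reporter luminescence and viable-cell signal on separate replicate plates, given as percent of non-targeting control and median/MAD z-scores, plus per-cell luciferase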
# Direction: total luciferase, z-score and total luciferase, % of control: higher = more reporter protein produced; luciferase per cell, z-score: higher = more reporter output per viable cell; viable cells, % of control: higher = more viable cells
# Active means: 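An siRNA counts as active if its total luciferase robust z-score exceeds 3; genes with two or more such siRNAs out of three were retested with fresh siRNAs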
# Meaning of the calls: active = raised luciferase; inactive = no rise
# Here is an unselected part of about 59,000 reagents. Over the whole deposit, about 1,510 (2.6%) are marked active. 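Calls use total luciferase alone and ignore viability, so some active siRNAs may act by altering cell number.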 Unmarked entries are inactive. Reagents against one gene are numbered here. Reagent sequences are not shown.
target gene,siRNA no.,"total luciferase, z-score","total luciferase, % of control","luciferase per cell, z-score","viable cells, % of control"
NUP85,1,1.02,102,1.91,69.1
NUP85,2,-0.00104,81.9,-0.117,94.3
NUP85,3,-1.13,59.4,-0.437,74.4
PI4K2B,1,-1.04,61.1,-0.939,87.5
PI4K2B,2,-0.535,71.2,0.00313,79.5
PI4K2B,3,-1.2,58.1,-0.923,82.8
PHF5A,1,1.49,111,2.22,69.4
PHF5A,2,5.01 (active),181,3.95,71.6
PHF5A,3,0.921,100,2.27,61.5
ZNF526,1,2.17,125,2.19,78.4
ZNF526,2,0.321,88.3,0.146,94.9
ZNF526,3,0.332,88.5,0.392,89.2
SS18,1,-0.739,67.2,-1.04,98.8
SS18,2,-0.42,73.5,-0.893,104
SS18,3,-1.48,52.4,-1.66,90.5
PFKM,1,-1.88,44.4,-1.23,68.7
PFKM,2,-0.505,71.8,-0.303,87
PFKM,3,-0.738,67.2,-0.854,94
ASXL1,1,-0.743,67.1,-0.414,83.6
ASXL1,2,-0.208,77.7,0.355,79.1
ASXL1,3,1.06,103,0.454,102
HAO1,1,-0.231,77.3,-0.614,102
HAO1,2,-0.252,76.9,0.382,77.7
HAO1,3,-0.585,70.3,-0.767,96.1
ZNF165,1,1.23,106,1.02,90.9
ZNF165,2,0.542,92.7,0.128,100
ZNF165,3,0.411,90.1,-0.0735,103
FZD10-AS1,1,-1.17,58.6,-1.29,91.9
FZD10-AS1,2,2.79,137,2.07,89
FZD10-AS1,3,1.03,102,0.421,102
CLPTM1,1,-1.14,59.2,-0.22,70.1
CLPTM1,2,0.412,90.1,-0.0468,102
CLPTM1,3,0.907,99.9,0.724,92.3
PPP4R4,1,1.3,108,1.36,84.2
PPP4R4,2,1.29,107,0.547,104
PPP4R4,3,-1.72,47.7,-1.08,70.9
HNRNPM,1,1.67,115,0.8,104
HNRNPM,2,-0.175,78.4,-0.395,97.2
HNRNPM,3,-0.84,65.2,0.105,70.9
MTMR11,1,-0.15,78.9,0.0515,87
MTMR11,2,-0.184,78.2,-1.01,114
MTMR11,3,1.84,119,1.18,97.1
RPL15P11,1,-2.98,22.6,-2.25,45.5
RPL15P11,2,-0.263,76.7,1.22,62.1
RPL15P11,3,-2.24,37.3,-2.04,71.3
PTPRN2,1,0.591,93.6,0.0718,103
PTPRN2,2,1.74,116,1.1,97.4
PTPRN2,3,1.94,120,1.31,95.3
ETFB,1,1.49,112,0.754,102
ETFB,2,-0.479,72.4,-0.548,93.4
ETFB,3,0.638,94.6,0.268,98.5
PLCB4,1,0.428,90.4,0.348,92.2
PLCB4,2,-0.0729,80.4,-0.402,99.9
PLCB4,3,-0.451,72.9,-0.59,95.2
ICA1,1,0.0494,82.9,0.163,88.7
ICA1,2,-0.857,64.8,-0.859,90.8
ICA1,3,-0.412,73.7,0.0108,82.1
